# Measured values reported in article PMC6905112, “CtcS, a MarR family regulator, regulates chlortetracycline biosynthesis” (BMC Microbiology, 2019).
# Target: T1, CtcS (Streptomyces aureofaciens F3) (UniProt S4S3A4)
# T1 sequence (looked up, limits assumed): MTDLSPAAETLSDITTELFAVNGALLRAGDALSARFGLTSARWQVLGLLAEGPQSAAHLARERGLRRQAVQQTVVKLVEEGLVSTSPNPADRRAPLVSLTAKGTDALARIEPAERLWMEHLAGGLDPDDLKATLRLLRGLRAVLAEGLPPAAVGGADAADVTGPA
# Assay: EMSA
# Conditions: EMSA: 50 mM Tris-HCl pH 8.0, 100 mM KCl, 2.5 mM MgCl2, 0.2 mM DTT, 10% glycerol, 0.04 pmol FAM probe, 100 ng/uL salmon sperm DNA, 25 C 30 min, recombinant protein, protein details: His6 (pET28a NdeI/EcoRI), label: FAM, probe letters rebuilt from the primers and the genome, part of a longer molecule
sequence,measurement,setting,value
TGAGCCCGAAGCGGGCGGACAGCGCGTCGCCCGCGCGCAGCAGGGCTCCGTTGACGGCGAACAGTTCGGTGGTGATGTCACTCAAGGTCTCGGCCGCGGGGGAGAGATCGGTCATGGGGGCAGCCTAATCGCAGGCTCTCCACGGCCAGCCTAGCCTCGTCCGGGCCGGGATTTCGGCAAGAACTTGTCATTCCGCCACGGTAGCCACTACGCTCAGTTCGACAAGACCTTGTCGAATTCGGTGGGAGAAATGGGAATGGCGAACGCCACCTCGCAGACCGGCGAGGCCGTCGCGGACGAGGCCGGCGGCCCCGCCGGCTTCACTCACCGCCAGATCATCACCGCGCTGTCCGGGCTCCTGTTGGCCGTG (double strand) [ctcS-ctcR intergenic region probe],binding result,"10-40 pmol CtcS in 20 uL, salmon sperm DNA 100 ng/uL",binds
same,binding result,"chlortetracycline 1.5 uM, no effect on complex, 20 uL",binds
same,binding result,"chlortetracycline 0.5 mM, same shift change as 2.5 uM tetracycline, 20 uL",binds more weakly
same,binding result,"tetracycline, complex dissociates at 1.5 uM, concentration dependent, 20 uL",binds more weakly

# Construct, isoform or probe ends are uncertain for at least one entry. The comparison behind a weaker result is the experiment's own reference, which may not be listed here. Where a protein sequence is shown, tags need not be part of it.
